Data taken from PubChem BioAssay (NCATS).
The inconclusive results got no clear call from the source; some entries with a clear call stand among them for comparison. Potencies of inconclusive entries are doubtful fits and often do not repeat. Calls of active or inactive are those of the source. The call rests on the fitted dose curve; in most records, active means well fitted cell-killing curve with a large enough effect; inconclusive means small, poorly fitted or top-dose-only effect, or effect the other way; inactive means no such curve, though single readings can be large or run the other way.

Test: Quantitative High-Throughput drug screen in 47 multiple myeloma cell lines against the NCATS MIPE library collection: MMM1_PLB cell viability assay (AID 1918976); further: nearly all actives have a fitted effect of over 35% in size
Settings: MMM1 myeloma cells viability, CellTiter-Glo, 48 h; series mostly up to 45.8 µM; viability (% of control): at the top concentration
How it was run: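 Plated at 500 cells per well, myeloma lines received MIPE 4.0 compounds by pin tool. Following 48 h culture at 37 °C, CellTiter-Glo luminescence gave viability relative to DMSO and media-only controls.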
Potency means the concentration at half of the fitted maximal effect.

| SMILES | Potency | viability (% of control) |
| --- | --- | --- |
| CC(C)C[C@H](NC(=O)c1cc2ccccc2s1)C(=O)N1CCN(C(=O)[C@H](CO)NS(=O)(=O)c2ccc(Cl)cc2Cl)CC1 | active: 18.7 µM |  |
| Cc1oc(=O)oc1CN1CCN(c2cc3c(cc2F)c(=O)c(C(=O)O)c2n3C(C)S2)CC1 (stereo not given) | inconclusive: 18.7 µM [cytotoxic, partial curve, poor fit] |  |
| NCc1c[nH]c(=S)n1[C@H]1CCc2c(F)cc(F)cc2C1 | inconclusive: 18.7 µM [cytotoxic, partial curve, poor fit] |  |
| COc1ccc2c(c1)CC[C@@H](CN(C)CC(=O)O)[C@H]2c1ccccc1 | active: 14.8 µM |  |
| COc1cc(CNC(=O)CCCCC=CC(C)C)ccc1O | inconclusive: 0.0033 µM [rising, full curve, poor fit] |  |
| Nc1cccc(S(=O)(=O)N2CCCN(S(=O)(=O)c3ccc4c(c3)OCCO4)CC2)c1 | inconclusive: 13.2 µM [cytotoxic, partial curve, poor fit] |  |
| CCn1c(-c2nonc2N)nc2c(C#CC(C)(C)O)ncc(OC[C@H]3CCCNC3)c21 | inconclusive: 0.0093 µM [cytotoxic, full curve] |  |
| COc1cc2c(c(OC)c1OC)-c1ccc(OC)c(=O)cc1[C@@H](NC(C)=O)CC2 | inconclusive: 0.0526 µM [cytotoxic, full curve] |  |
| Oc1ccc([C@@H]2Oc3ccc(O)cc3[C@@H]3CCC[C@@H]32)cc1 | inconclusive: 18.7 µM [cytotoxic, partial curve, poor fit] |  |
| N#CC(=C(N)Sc1ccc(N)cc1)c1ccccc1C(F)(F)F |  | inactive: 92.5% |
| CCC(=O)N1CCN(c2ccc(-n3c(=O)ccc4cnc5ccc(-c6cnc7ccccc7c6)cc5c43)cc2C(F)(F)F)CC1 | inconclusive: 0.0526 µM [cytotoxic, full curve] |  |
| CCn1c(=O)c2c(nc(C=Cc3ccc(OC)c(OC)c3)n2C)n(CC)c1=O | inconclusive: 14.8 µM [cytotoxic, partial curve, poor fit] |  |
| CCNC(=O)Nc1ccc(Oc2ncnc(N)c2C=NOC)cc1Cl | inconclusive: 0.0074 µM [rising, full curve] |  |
| CC(C)(O)CCc1ccc(OCc2cc(-c3cccc(OC(F)F)c3)c3ncccc3c2)cc1 | inconclusive: 0.0033 µM [rising, full curve, poor fit] |  |
| N#CC(c1ccc(Cl)cc1)c1c(Cl)cc(-n2ncc(=O)[nH]c2=O)cc1Cl (stereo not given) | inconclusive: 0.0026 µM [rising, full curve, poor fit] |  |
| Cc1ccc2c(=O)c3cccc(CC(=O)O)c3oc2c1C |  | inactive: 137% |
| CN(C)CCN(Cc1ccc(Cl)cc1)c1ccccn1 | inconclusive: 0.0042 µM [rising, full curve] |  |
| COc1ccc2[nH]cc(CCNC(C)=O)c2c1 | inconclusive: 0.418 µM [cytotoxic, full curve, poor fit] |  |
| CN1c2ccccc2C(=O)N2CCc3c([nH]c4ccccc34)C21 (stereo not given) | inconclusive: 0.187 µM [cytotoxic, full curve, poor fit] |  |
| CC(=O)N1CCN(c2ccc(OC[C@H]3CO[C@](Cn4ccnc4)(c4ccc(Cl)cc4Cl)O3)cc2)CC1 | active: 23.5 µM |  |
| CCN(C)C(=O)Oc1cccc([C@H](C)N(C)C)c1 | inconclusive: 0.001 µM [cytotoxic] |  |
| CCN(CCO)CCCOc1ccc2c(Nc3cc(CC(=O)Nc4cccc(F)c4)[nH]n3)ncnc2c1 | inconclusive: 0.0105 µM [rising, full curve] |  |
| N#CC(=C(O)c1ccc(Cl)cc1Cl)c1nc2cc(Cl)ccc2c(=O)[nH]1 |  | inactive: 119% |
| CCCCOCCOc1nc(-c2ccc(C(=O)O)c(F)c2)sc1C |  | inactive: 102% |
| CC(C)(Oc1ccc(C2CC2(Cl)Cl)cc1)C(=O)O (stereo not given) |  | inactive: 110% [at 92.2 µM] |
| CNC(=O)c1cc(Oc2ccc(NC(=O)Nc3ccc(Cl)c(C(F)(F)F)c3)cc2)ccn1 | active: 16.6 µM |  |
| CC(c1cc2ccccc2s1)N(O)C(N)=O (stereo not given) | inconclusive: 9.35 µM [cytotoxic, partial curve, poor fit] |  |
| CN1CCC[C@H]1CCO[C@](C)(c1ccccc1)c1ccc(Cl)cc1 | inconclusive: 0.0059 µM [rising, full curve] |  |
| C=CCn1c(=O)c2cnc(Nc3ccc(N4CCN(C)CC4)cc3)nc2n1-c1cccc(C(C)(C)O)n1 |  | inactive: 118% |
| CC(NCCc1ccc(O)cc1)C(O)c1ccc(O)cc1 (stereo not given) | active: 14.8 µM |  |

Single records (already shown).
CC(NCCc1ccc(O)cc1)C(O)c1ccc(O)cc1 (stereo not given) as listed: Potency: active: 14.8 µM
COc1ccc2c(c1)CC[C@@H](CN(C)CC(=O)O)[C@H]2c1ccccc1 as listed: Potency: active: 14.8 µM
